# PubChem BioAssay AID504444 (National Center for Advancing Translational Sciences (NCATS), 2011)
# Out of some 360,000 compounds screened, about 7,500 (2.1%) were called active. The shares of active, inactive and inconclusive entries below differ from those in the screen. Calls come from the whole dose curve; as a rule, active = well fitted inhibition curve with a large enough effect; inconclusive = small, poorly fitted or top-dose-only effect, or effect the other way; inactive = flat fitted curve, though single readings scatter. A potency beside an inconclusive call is a rough fit, not a confirmed value.
# Assay: Nrf2 qHTS screen for inhibitors; note: nearly all actives have a fitted effect of over 60% in size
# Details: A549 ARE-Fluc reporter, luciferase luminescence, 18-24 h; series mostly up to 46 µM
# Procedure, shortened: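 Concentration-response testing used A549 ARE_Fluc cells at 5000 cells/well. Following an 18-24 h compound incubation, viability was read by fluorescence (Ex 405/Em 525) and luciferase output by luminescence.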
# Potency is the fitted concentration of half-maximal effect.
row,Structure (SMILES),Potency
1,CN(C)c1ccc2nc3c(=O)[nH]c(=O)nc-3n(CC(O)C(O)C(O)CO)c2c1 (stereo not given),"inconclusive: 16.4 µM [falling, partial curve]"
2,COC(=O)C1=C(CN2CCN(C)CC2)NC(=O)NC1c1cc(C)ccc1C (stereo not given),inactive
3,O=C(c1ccccc1)c1ccc(OCCCN2CCCCC2)cc1,inactive
4,COC(=O)c1ccccc1NC(=O)CN1CCC(NC(=O)c2ccc(C)cc2)CC1,inactive
5,CCC/C=N/Nc1nc2ccccc2s1,"inconclusive: 13 µM [activator, partial curve]"
6,C=CCc1cccc2cc(C(=O)O)c(=O)oc12,inactive
7,CCOC(=O)N1C=CC=C[C@@H]2[C@@H](N3C(=O)c4ccccc4C3=O)C(=O)N21,inactive
8,Cc1cccc(Nc2nc(N3CCCCC3)nc(N3CCCCC3)n2)c1,"inconclusive: 6.51 µM [activator, single point]"
9,O=S(=O)(c1cccs1)N1CCN(c2nc(-c3cccs3)nc3ccccc23)CC1,inactive
10,Cc1cccc(C=CC(=O)c2ccc(Cl)cc2)c1,inactive
11,CC(C)n1c(=O)c2oc3ccccc3c2n(CC(=O)Nc2ccccc2Cl)c1=O,"inconclusive: 29.1 µM [activator, single point]"
12,N#CC1=C(SCC(=O)c2ccc(Br)cc2)NC2=C(C(=O)CCC2)C1c1ccco1 (stereo not given),active: 18.4 µM
13,CSCCC(NC(=O)c1ccco1)C(=O)N1CCCC(C(F)(F)F)C1 (stereo not given),"inconclusive: 18.4 µM [falling, single point]"
14,O=S(=O)(Nc1cccc(-c2nnco2)c1)c1ccc(Cl)cc1,"inconclusive: 29.1 µM [falling, single point]"
15,Cc1c(Cl)cccc1NC(=O)Cn1c(=O)n(Cc2ccco2)c(=O)c2oc3ccccc3c21,inactive
16,CCc1nc2nc(C)cc(Nc3ccc(F)c(Cl)c3)n2n1,inactive
17,CC1(C)Oc2nc3ccccc3n2/C1=C\C#N,"inconclusive: 29.1 µM [activator, single point]"
18,O=C1CC(c2ccc(Br)cc2)c2c(ccc3ccccc23)N1 (stereo not given),"inconclusive: 29.1 µM [falling, single point]"
19,COc1ccc2nc(C)cc(N3CC(C)OC(C)C3)c2c1 (stereo not given),"inconclusive: 6.51 µM [activator, single point]"
20,Cc1cccc(C(=O)NCCNc2nc3cc(C)c(C)cc3cc2C)c1,"inconclusive: 14.6 µM [falling, single point]"
21,O=C(Nc1ccc2ncccc2c1)c1cccc(Br)c1,"inconclusive: 2.91 µM [activator, full curve]"
22,Fc1ccc(CN2CCN(c3ncnc4scc(-c5ccccc5)c34)CC2)cc1,active: 23.1 µM
23,COc1ccc(C(=O)N(Cc2nc(-c3ccc(C)cc3)no2)C2CCCCC2)cc1OC,"inconclusive: 29.1 µM [falling, single point]"

row,Structure (SMILES),Potency
1,CCOC(=O)C1=C(C)Nc2ccccc2N=C1NC(=O)Cc1ccc(Cl)c(Cl)c1,"inconclusive: 2.06 µM [falling, partial curve, poor fit]"
2,COC(=O)[C@H](Cc1ccccc1)N1C/C=C\COc2c(Cl)cc(Cl)cc2S1(=O)=O,"inconclusive: 32.6 µM [falling, single point]"
3,Cc1ccccc1Nc1scc(-c2ccc(Cl)cc2)[n+]1-c1ccccc1C,"inconclusive: 14.6 µM [falling, partial curve, poor fit]"
4,COc1ccc(S(=O)(=O)N2CCN(C)CC2)cc1NC(=O)c1ccccc1,inactive
5,Cc1cc(C)c(C)c(S(=O)(=O)N2CCN(CC(=O)Nc3ccc([N+](=O)[O-])cc3)CC2)c1C,inactive
6,COC(=O)Cc1c(C)c2ccc(OCC(=O)c3ccc(OC)c(OC)c3)cc2oc1=O,"inconclusive: 13 µM [falling, partial curve, poor fit]"
7,CCn1c(=O)c2cc(C(=O)N3CCN(c4cccc(OC)c4)CC3)sc2c2ccccc21,"inconclusive: 23.1 µM [falling, single point]"
8,COC(=O)c1ccc(NC(=O)CNc2ccccc2)cc1,"inconclusive: 23.1 µM [activator, partial curve, poor fit]"
9,COc1ccc(-c2csc(N3CCN(Cc4ccc5c(c4)OCO5)CC3)n2)cc1,inactive
10,CC(C)OC(=O)c1ccc(NC(=O)c2cccc(-n3cnnn3)c2)cc1,"inconclusive: 18.4 µM [falling, single point]"
11,CCc1ccc(C(c2ccccc2)c2c[nH]c3ccc(C)cc23)s1 (stereo not given),inactive
12,CCc1cccc(-n2nnc(-c3nsc(NC(=O)c4ccc(C)cc4)n3)c2C)c1,"inconclusive: 5.17 µM [falling, partial curve, poor fit]"
13,CC1CCN(c2ccc(C(=O)Nc3ccc4c(c3)OCO4)cc2[N+](=O)[O-])CC1,active: 9.2 µM
14,C#CCSc1ncc(S(=O)(=O)c2ccccc2)c(=O)[nH]1,"inconclusive: 16.4 µM [activator, partial curve]"
15,CCN(c1ccccc1)S(=O)(=O)c1ccc(Cl)c(NC(=O)CN(C)C2CCN(C)CC2)c1,"inconclusive: 29.1 µM [activator, single point]"
16,CCOc1ccc(C(=O)N2CCC(C(=O)c3ccc4c(c3)OCCO4)CC2)cc1,"inconclusive: 29.1 µM [falling, single point]"
17,O=C(Nc1cccc(OCC(=O)N2CCOCC2)c1)c1cccc([N+](=O)[O-])c1,inactive
18,NC(=O)c1cc([N+](=O)[O-])c(Cl)cc1NCc1ccncc1,inactive
19,COc1ccc(S(=O)(=O)N2C(=O)/C(=C3\SC(N)=NC3=O)c3ccccc32)cc1,"inconclusive: 29.1 µM [falling, partial curve, poor fit]"
20,CN(C)/C=N/C1=C(C#N)C(c2cccs2)c2ccc3ccccc3c2O1 (stereo not given),"inconclusive: 11.6 µM [activator, single point]"
21,O=C(COC(=O)c1ccc(-c2ccc([N+](=O)[O-])cc2)o1)NC(=O)NC12CC3CC(CC(C3)C1)C2,inactive
22,Cc1ccc(NC(=O)Nc2ccc3c(c2)N(C)C(=O)CS3)nc1,"inconclusive: 5.8 µM [falling, partial curve]"
